Reference: patent US11945806B2, “Stabilization of amyloidogenic immunoglobulin light chains” (The Scripps Research Institute, priority 2019, dated 2024)
For at least one compound, name, drawing or mass did not settle the structure.

Test system: WIL-FL*
Experiment: FP artefact counterscreen (compounds added after 24 h of proteinase K treatment)
Type: biochemical, human
Parameters: concentration or dose not given beside the values
Settings: compound added after 24 h PK treatment; mean ± sd, n=3
Procedure: Secondly, to remove compounds that interfere with the FP measurement, the primary screen was repeated in triplicate but compounds were added after 24 h of proteinase K treatment (FIG. 1f). […] Bona fide hits should retain no FP beyond the low control.

## CC(C=NNc1ccc(S(N)(=O)=O)cc1[N+](=O)[O-])c1ccccc1 (stereo not shown) [Compound 6]
  Counterscreen activity (%): 1.00 ± 2.6%
